Results are given in words; binding and its absence hold for the method and conditions named. For some of these results: In cells and extracts the contact can be indirect. Some results given as binding are weak or reduced against the parent protein; the word gives no strength. For some of these results: Where a sequence is shown, tags or fusion partners need not be part of it.
Experiments:
[1] = biological target: HRS-Flag (UniProt Q99LI8); assay: co-IP; HEK293T cotransfected with HRS-Flag and TLR3-AcGFP or TLR9-AcGFP for 72 h; lysates immunoprecipitated with anti-M2-Flag antibody, immunoblotting
[2] = biological target: T1, endogenous TLR3 with C-terminal Myc-HA tags (Tlr3^t/t knock-in) (mouse (endogenous in BMDMs)) (UniProt Q99MB1); assay: co-IP; Znrf1+/+Tlr3t/t and Znrf1-/-Tlr3t/t BMDMs untreated or treated with poly(I:C) (30 μg/ml); lysates immunoprecipitated with anti-HA antibody, immunoblotting
T1 sequence: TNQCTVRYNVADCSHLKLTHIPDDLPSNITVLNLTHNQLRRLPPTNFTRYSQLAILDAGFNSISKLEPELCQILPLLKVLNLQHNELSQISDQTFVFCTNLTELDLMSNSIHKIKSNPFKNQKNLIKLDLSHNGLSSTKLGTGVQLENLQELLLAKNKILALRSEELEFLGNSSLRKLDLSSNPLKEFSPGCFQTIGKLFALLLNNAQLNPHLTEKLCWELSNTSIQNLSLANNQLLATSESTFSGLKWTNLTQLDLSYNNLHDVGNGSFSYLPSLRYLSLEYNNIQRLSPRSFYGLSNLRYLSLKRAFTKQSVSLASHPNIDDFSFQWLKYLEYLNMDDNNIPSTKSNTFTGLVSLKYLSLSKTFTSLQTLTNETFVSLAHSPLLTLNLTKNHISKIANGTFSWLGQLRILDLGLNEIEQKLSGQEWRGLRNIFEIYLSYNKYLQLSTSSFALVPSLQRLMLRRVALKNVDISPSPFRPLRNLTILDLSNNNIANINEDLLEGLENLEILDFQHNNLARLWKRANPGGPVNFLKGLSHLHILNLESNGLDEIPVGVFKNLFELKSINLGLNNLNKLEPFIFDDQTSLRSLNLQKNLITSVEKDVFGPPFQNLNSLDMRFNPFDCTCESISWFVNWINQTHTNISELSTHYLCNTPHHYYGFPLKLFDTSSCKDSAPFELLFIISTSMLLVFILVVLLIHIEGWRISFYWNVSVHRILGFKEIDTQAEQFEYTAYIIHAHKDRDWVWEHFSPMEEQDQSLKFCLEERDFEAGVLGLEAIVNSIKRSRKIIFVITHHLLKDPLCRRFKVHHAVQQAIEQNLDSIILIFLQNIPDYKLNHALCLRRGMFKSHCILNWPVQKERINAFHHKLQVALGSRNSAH

Protein sequences, listed by entry. Tags and fused reporters are not part of them. Residues count along the entry.
UniProt Q99LI8: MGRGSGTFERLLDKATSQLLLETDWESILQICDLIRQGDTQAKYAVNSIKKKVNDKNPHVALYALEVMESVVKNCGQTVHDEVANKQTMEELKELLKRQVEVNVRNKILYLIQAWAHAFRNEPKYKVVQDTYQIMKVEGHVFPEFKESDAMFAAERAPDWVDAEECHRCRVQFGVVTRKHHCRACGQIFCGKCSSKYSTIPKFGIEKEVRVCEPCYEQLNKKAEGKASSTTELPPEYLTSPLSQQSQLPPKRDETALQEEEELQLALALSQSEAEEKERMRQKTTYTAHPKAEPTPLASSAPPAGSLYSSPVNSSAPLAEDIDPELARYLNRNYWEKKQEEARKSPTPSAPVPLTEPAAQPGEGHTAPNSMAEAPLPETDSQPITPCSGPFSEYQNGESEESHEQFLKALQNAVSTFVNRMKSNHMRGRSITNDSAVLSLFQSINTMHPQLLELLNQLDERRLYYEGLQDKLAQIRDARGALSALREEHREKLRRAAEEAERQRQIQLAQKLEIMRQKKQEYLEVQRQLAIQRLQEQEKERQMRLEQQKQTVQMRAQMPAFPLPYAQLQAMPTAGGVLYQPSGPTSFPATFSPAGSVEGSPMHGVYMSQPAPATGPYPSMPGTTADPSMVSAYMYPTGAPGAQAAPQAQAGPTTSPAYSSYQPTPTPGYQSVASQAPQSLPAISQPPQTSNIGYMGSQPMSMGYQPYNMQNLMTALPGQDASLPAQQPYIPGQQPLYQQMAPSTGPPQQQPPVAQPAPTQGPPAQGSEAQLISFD
UniProt Q9QUN7, residues 25-784: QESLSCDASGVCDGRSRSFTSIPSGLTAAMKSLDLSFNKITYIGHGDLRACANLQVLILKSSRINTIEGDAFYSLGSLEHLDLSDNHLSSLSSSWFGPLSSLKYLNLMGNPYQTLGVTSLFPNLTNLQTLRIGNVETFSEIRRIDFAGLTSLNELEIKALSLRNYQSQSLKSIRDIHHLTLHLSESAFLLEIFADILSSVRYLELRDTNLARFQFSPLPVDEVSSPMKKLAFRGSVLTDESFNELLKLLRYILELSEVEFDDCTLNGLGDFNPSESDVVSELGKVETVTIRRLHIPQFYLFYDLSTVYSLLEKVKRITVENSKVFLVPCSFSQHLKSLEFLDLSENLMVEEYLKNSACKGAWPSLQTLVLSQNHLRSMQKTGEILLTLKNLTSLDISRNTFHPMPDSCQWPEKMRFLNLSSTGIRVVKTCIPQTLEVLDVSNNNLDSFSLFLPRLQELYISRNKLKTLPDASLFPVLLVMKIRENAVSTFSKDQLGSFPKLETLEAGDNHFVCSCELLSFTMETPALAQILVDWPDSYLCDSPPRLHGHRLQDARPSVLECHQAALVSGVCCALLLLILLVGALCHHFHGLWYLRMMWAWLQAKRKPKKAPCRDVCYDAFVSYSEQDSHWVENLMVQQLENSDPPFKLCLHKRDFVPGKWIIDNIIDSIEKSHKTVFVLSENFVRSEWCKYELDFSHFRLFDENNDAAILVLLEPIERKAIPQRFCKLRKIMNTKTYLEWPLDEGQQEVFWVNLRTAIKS

[3] = biological target: Flag-TLR2 (UniProt Q9QUN7); assay: co-IP; HEK293T cotransfected with Flag-TLR2 or Flag-TLR3 and ZNRF1-Myc; reciprocal immunoprecipitation, immunoblotting
[4] = biological target: T2, Flag-TLR3 (UniProt Q99MB1); assay: as above
T2 sequence: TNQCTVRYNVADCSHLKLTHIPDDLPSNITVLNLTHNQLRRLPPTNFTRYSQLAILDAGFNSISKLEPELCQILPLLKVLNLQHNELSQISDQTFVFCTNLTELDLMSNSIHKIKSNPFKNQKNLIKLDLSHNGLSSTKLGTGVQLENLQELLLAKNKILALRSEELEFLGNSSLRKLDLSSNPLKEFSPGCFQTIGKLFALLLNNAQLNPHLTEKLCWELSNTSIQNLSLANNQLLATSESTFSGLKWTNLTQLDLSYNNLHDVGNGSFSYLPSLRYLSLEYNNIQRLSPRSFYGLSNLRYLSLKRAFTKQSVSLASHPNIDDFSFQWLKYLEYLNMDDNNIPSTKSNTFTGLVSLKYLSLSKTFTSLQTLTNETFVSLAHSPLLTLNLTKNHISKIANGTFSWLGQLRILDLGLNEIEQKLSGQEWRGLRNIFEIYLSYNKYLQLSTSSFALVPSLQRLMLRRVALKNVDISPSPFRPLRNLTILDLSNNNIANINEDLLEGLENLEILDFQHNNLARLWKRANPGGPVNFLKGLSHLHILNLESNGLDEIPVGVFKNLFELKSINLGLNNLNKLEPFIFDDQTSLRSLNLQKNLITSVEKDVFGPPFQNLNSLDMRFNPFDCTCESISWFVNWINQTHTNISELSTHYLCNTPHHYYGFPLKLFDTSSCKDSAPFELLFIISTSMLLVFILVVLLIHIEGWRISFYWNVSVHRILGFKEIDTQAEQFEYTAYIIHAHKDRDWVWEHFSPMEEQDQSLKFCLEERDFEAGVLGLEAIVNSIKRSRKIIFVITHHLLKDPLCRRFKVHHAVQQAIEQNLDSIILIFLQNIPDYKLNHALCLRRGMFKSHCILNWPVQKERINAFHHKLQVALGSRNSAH

[5] = biological target: TRIF (UniProt Q80UF7); assay: semidenaturing detergent agarose gel electrophoresis (SDD-AGE); cells stimulated with poly(I:C) (30 μg/ml); lysates with or without DTT (5 mM) on 1.5% agarose gel with 0.1% SDS, immunoblotting
[6] = biological target: T3, TLR3-AcGFP (mouse) (UniProt Q99MB1); assay: co-IP; HEK293T cotransfected with AcGFP-tagged TLR3 and Flag-tagged full-length or truncated ZNRF1 for 72 h; immunoprecipitation followed by immunoblotting
T3 sequence: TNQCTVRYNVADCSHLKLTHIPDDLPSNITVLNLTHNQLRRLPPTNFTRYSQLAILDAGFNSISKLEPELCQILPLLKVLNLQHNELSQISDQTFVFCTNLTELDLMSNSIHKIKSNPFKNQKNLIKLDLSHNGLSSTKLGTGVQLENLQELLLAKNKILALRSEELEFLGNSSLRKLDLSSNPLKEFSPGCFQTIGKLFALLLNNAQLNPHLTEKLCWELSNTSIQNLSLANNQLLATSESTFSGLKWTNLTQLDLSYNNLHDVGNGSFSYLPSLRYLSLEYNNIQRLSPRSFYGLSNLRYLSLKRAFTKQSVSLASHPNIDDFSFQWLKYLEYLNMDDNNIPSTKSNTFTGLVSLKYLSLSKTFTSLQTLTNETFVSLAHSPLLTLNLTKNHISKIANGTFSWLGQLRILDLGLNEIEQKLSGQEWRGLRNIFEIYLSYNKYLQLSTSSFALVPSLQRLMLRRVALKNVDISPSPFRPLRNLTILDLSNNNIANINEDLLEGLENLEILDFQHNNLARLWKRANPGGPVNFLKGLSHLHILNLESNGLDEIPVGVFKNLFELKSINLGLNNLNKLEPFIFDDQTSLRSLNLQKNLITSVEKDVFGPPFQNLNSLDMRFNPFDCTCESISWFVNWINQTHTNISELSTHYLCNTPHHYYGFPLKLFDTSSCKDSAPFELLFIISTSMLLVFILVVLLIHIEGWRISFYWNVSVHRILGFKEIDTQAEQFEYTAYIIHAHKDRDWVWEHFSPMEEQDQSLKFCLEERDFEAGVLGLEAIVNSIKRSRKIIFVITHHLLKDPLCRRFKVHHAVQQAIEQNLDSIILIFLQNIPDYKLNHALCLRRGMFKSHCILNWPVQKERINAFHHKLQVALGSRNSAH

With “TLR3-AcGFP (from UniProt Q99MB1 26-905) (receptor)” the binding [1] was “binds”.

With “HRS, endogenous (from UniProt Q99LI8 1-775)” the binding [2] was “binds”.

B1: ZNRF1-Myc (enzyme, UniProt Q91V17 1-227)
chain: MGGKQSTAARSRGPFPGVSTDDSAVPPPGGAPHFGHYRTGGGAMGLRSRSVSSVAGMGMDPSTAGGVPFSLYTPASRGTGDSERAPGGGGSTSDSTYAHGNGYQETGGGHHRDGMLYLGSRASLADALPLHIAPRWFSSHSGFKCPICSKSVASDEMEMHFIMCLSKPRLSYNDDVLTKDAGECVICLEELLQGDTIARLPCLCIYHKSCIDSWFEVNRSCPEHPAD
B1 was tested, and the binding [3] was “no binding” and the binding [4] was “binds”.

B2: TRIF (protein, UniProt Q80UF7 1-732)
chain: MDNPGPSLRGAFGILGALERDRLTHLKHKLGSLCSGSQESKLLHAMVLLALGQDTEARVSLESLKMNTVAQLVAHQWADMETTEGPEEPPDLSWTVARLYHLLAEENLCPASTRDMAYQVALRDFASQGDHQLGQLQNEAWDRCSSDIKGDPSGFQPLHSHQGSLQPPSASPAVTRSQPRPIDTPDWSWGHTLHSTNSTASLASHLEISQSPTLAFLSSHHGTHGPSKLCNTPLDTQEPQLVPEGCQEPEEISWPPSVETSVSLGLPHEISVPEVSPEEASPILPDALAAPDTSVHCPIECTELSTNSRSPLTSTTESVGKQWPITSQRSPQVPVGDDSLQNTTSSSPPAQPPSLQASPKLPPSPLSSASSPSSYPAPPTSTSPVLDHSETSDQKFYNFVVIHARADEQVALRIREKLETLGVPDGATFCEEFQVPGRGELHCLQDAIDHSGFTILLLTASFDCSLSLHQINHALMNSLTQSGRQDCVIPLLPLECSQAQLSPDTTRLLHSIVWLDEHSPIFARKVANTFKTQKLQAQRVRWKKAQEARTLKEQSIQLEAERQNVAAISAAYTAYVHSYRAWQAEMNKLGVAFGKNLSLGTPTPSWPGCPQPIPSHPQGGTPVFPYSPQPPSFPQPPCFPQPPSFPQPPSFPLPPVSSPQSQSFPSASSPAPQTPGPQPLIIHHAQMVQLGVNNHMWGHTGAQSSDDKTECSENPCMGPLTDQGEPLLETPE
B2 was tested, and the binding [5] was “binds”.

B3: ZNRF1-Flag, full-length (enzyme, UniProt Q91V17 1-227)
chain: MGGKQSTAARSRGPFPGVSTDDSAVPPPGGAPHFGHYRTGGGAMGLRSRSVSSVAGMGMDPSTAGGVPFSLYTPASRGTGDSERAPGGGGSTSDSTYAHGNGYQETGGGHHRDGMLYLGSRASLADALPLHIAPRWFSSHSGFKCPICSKSVASDEMEMHFIMCLSKPRLSYNDDVLTKDAGECVICLEELLQGDTIARLPCLCIYHKSCIDSWFEVNRSCPEHPAD
B3 was tested, and the binding [6] was “binds”.

B4: TLR9-AcGFP (receptor, UniProt Q9EQU3 26-1032)
chain: LGTLPAFLPCELKPHGLVDCNWLFLKSVPRFSAAASCSNITRLSLISNRIHHLHNSDFVHLSNLRQLNLKWNCPPTGLSPLHFSCHMTIEPRTFLAMRTLEELNLSYNGITTVPRLPSSLVNLSLSHTNILVLDANSLAGLYSLRVLFMDGNCYYKNPCTGAVKVTPGALLGLSNLTHLSLKYNNLTKVPRQLPPSLEYLLVSYNLIVKLGPEDLANLTSLRVLDVGGNCRRCDHAPNPCIECGQKSLHLHPETFHHLSHLEGLVLKDSSLHTLNSSWFQGLVNLSVLDLSENFLYESITHTNAFQNLTRLRKLNLSFNYRKKVSFARLHLASSFKNLVSLQELNMNGIFFRLLNKYTLRWLADLPKLHTLHLQMNFINQAQLSIFGTFRALRFVDLSDNRISGPSTLSEATPEEADDAEQEELLSADPHPAPLSTPASKNFMDRCKNFKFTMDLSRNNLVTIKPEMFVNLSRLQCLSLSHNSIAQAVNGSQFLPLTNLQVLDLSHNKLDLYHWKSFSELPQLQALDLSYNSQPFSMKGIGHNFSFVTHLSMLQSLSLAHNDIHTRVSSHLNSNSVRFLDFSGNGMGRMWDEGGLYLHFFQGLSGLLKLDLSQNNLHILRPQNLDNLPKSLKLLSLRDNYLSFFNWTSLSFLPNLEVLDLAGNQLKALTNGTLPNGTLLQKLDVSSNSIVSVVPAFFALAVELKEVNLSHNILKTVDRSWFGPIVMNLTVLDVRSNPLHCACGAAFVDLLLEVQTKVPGLANGVKCGSPGQLQGRSIFAQDLRLCLDEVLSWDCFGLSLLAVAVGMVVPILHHLCGWDVWYCFHLCLAWLPLLARSRRSAQTLPYDAFVVFDKAQSAVADWVYNELRVRLEERRGRRALRLCLEDRDWLPGQTLFENLWASIYGSRKTLFVLAHTDRVSGLLRTSFLLAQQRLLEDRKDVVVLVILRPDAHRSRYVRLRQRLCRQSVLFWPQQPNGQGGFWAQLSTALTRDNRHFYNQNFCRGPTAE
With B4 the binding [1] was “binds”.

Source: paper PMC10174191
